The list does not hold the whole screen: it gathers tests that were run many times, whatever their T/C, doses with no T/C, and many T/C values between a quarter and a half above the control. Other doses and runs of a compound stand elsewhere. T/C: endpoint of the treated group in % of that of the vehicle group. Some entries give survivors of the animals treated and no T/C: the source holds a T/C of zero for them, seemingly a mark for toxic or unscored doses. Some survivor counts are full or nearly so, which does not show that the dose was tolerated: the source hardly ever lists a survival T/C far under the control, and the zero likely stands for such cases as well. Counts of survivors are from the toxicity check (mostly the fifth day) where no day follows; animals may have died later. Schedule codes are those of the source, read here as Q, the interval in days (D) or hours (H), X, the number of doses. Some entries were tested several times; the results are listed from low to high. Brackets with × give the number of equal values in this list. Where survival is the endpoint, the PubChem record calls one and a half times the control and up active, and a quarter to a half above the control has no call in these data; cut-offs in other NCI protocols can differ. Some T/C values carry the count of animals alive at the toxicity check (mostly the fifth day); where none is given, no animal had died by that day.
System: P388 leukemia ip, CD2F1 mice, survival T/C
Assay: NCI In Vivo Anticancer Drug Screen. Data for tumor model P388 Leukemia (intraperitoneal) in CD2F1 (CDF1) mice
Conditions: T/C endpoint: median survival time, higher T/C = longer survival
[1] = dose: 12.5 mg/kg/injection, schedule: Q01DX009 (ip), vehicle: saline with Tween-80
[2] = dose: 25.0 mg/kg/injection, schedule: Q01DX009 (ip), vehicle: saline with Tween-80
[3] = dose: 50.0 mg/kg/injection, schedule: Q01DX009 (ip), vehicle: saline with Tween-80
[4] = dose: 400.0 mg/kg/injection, schedule: Q04DX003 (ip), vehicle: saline with Tween-80
[5] = dose: 100.0 mg/kg/injection, schedule: Q01DX009 (ip), vehicle: saline with Tween-80
[6] = dose: 200.0 mg/kg/injection, schedule: Q01DX009 (ip), vehicle: saline with Tween-80
[7] = dose: 50.0 mg/kg/injection, schedule: Q01DX005 (ip), vehicle: saline with Tween-80
[8] = dose: 60.0 mg/kg/injection, schedule: Q01DX005 (ip), vehicle: saline with Tween-80
[9] = dose: 120.0 mg/kg/injection, schedule: Q01DX005 (ip), vehicle: saline with Tween-80
[10] = dose: 240.0 mg/kg/injection, schedule: Q01DX005 (ip), vehicle: saline with Tween-80
[11] = dose: 25.0 mg/kg/injection, schedule: Q01DX001 (ip), vehicle: saline with Tween-80

Question: What does the source list for `CCOC(=C\C=C\C1=[N+](C)c2ccccc2C1(C)C)/C=C/C=C1/N(C)c2ccccc2C1(C)C`?
Answer: survivor count (dose: 6.25 mg/kg/injection, schedule: Q01DX009 (ip), vehicle: saline with Tween-80): 3 of 6; survivor count [1]: 3 of 6; survivor count [2]: 0 of 6; survivor count [3]: 0 of 6

Question: `CC1CN1CC(O)C(O)CN1CC1C` (centres undefined) was tested. Which T/C (dose: 0.04 mg/kg/injection, schedule: Q04DX003 (ip), vehicle: saline) did it give?
Answer: 136 % of control

Question: And the T/C (dose: 0.08 mg/kg/injection, schedule: Q04DX003 (ip), vehicle: saline)?
Answer: 140 % of control

Question: And the T/C (dose: 1.5 mg/kg/injection, schedule: Q04DX003 (ip), vehicle: saline)?
Answer: 136 % of control

Question: And the survivor count (dose: 5.0 mg/kg/injection, schedule: Q01DX009 (ip), vehicle: saline with Tween-80)?
Answer: 6 of 6

Question: And the survivor count (dose: 7.5 mg/kg/injection, schedule: Q04DX003 (ip), vehicle: saline)?
Answer: 6 of 6

Question: And the survivor count (dose: 10.0 mg/kg/injection, schedule: Q01DX009 (ip), vehicle: saline)?
Answer: 6 of 6

Question: What about the survivor count (dose: 10.0 mg/kg/injection, schedule: Q04DX003 (ip), vehicle: saline) of the same molecule?
Answer: 6 of 6

Question: What about the survivor count (dose: 11.25 mg/kg/injection, schedule: Q04DX003 (ip), vehicle: saline) of the same molecule?
Answer: 6 of 6

Question: What about the survivor count (dose: 15.0 mg/kg/injection, schedule: Q04DX003 (ip), vehicle: saline) of the same molecule?
Answer: 3 of 6

Question: And the survivor count (dose: 20.0 mg/kg/injection, schedule: Q04DX003 (ip), vehicle: saline)?
Answer: 2 of 6 and 4 of 6

Question: And the survivor count (dose: 100.0 mg/kg/injection, schedule: Q04DX003 (ip), vehicle: saline with Tween-80)?
Answer: 0 of 6 (2×)

Question: And the survivor count (dose: 200.0 mg/kg/injection, schedule: Q04DX003 (ip), vehicle: saline with Tween-80)?
Answer: 0 of 6 (2×)

Question: And the survivor count [4]?
Answer: 0 of 6 (2×)

Question: Which survivor count (dose: 100.0 mg/kg/injection, schedule: Q01DX001 (ip), vehicle: saline with Tween-80) does the source give for `O=C1Nc2ccccc2/C1=N/N=c1\scc(-c2ccc(Br)cc2)n1-c1ccc(Cl)cc1` here?
Answer: 6 of 6

Question: What about the survivor count (dose: 400.0 mg/kg/injection, schedule: Q01DX001 (ip), vehicle: saline with Tween-80) of the same molecule?
Answer: 6 of 6

Question: `CCCC1(CCC)NC(=O)N(CC(=O)OCC)C1=O` was tested. Which survivor count (dose: 400.0 mg/kg/injection, schedule: Q01DX001 (ip), vehicle: saline) did it give?
Answer: 6 of 6

Question: Which survivor count (dose: 50.0 mg/kg/injection, schedule: Q01DX009 (ip), vehicle: distilled water + alcohol) does the source give for `c1ccc(N[n+]2ccc3ccccc3c2)cc1` here?
Answer: 0 of 6

Question: And the survivor count (dose: 100.0 mg/kg/injection, schedule: Q01DX009 (ip), vehicle: distilled water + alcohol)?
Answer: 0 of 6

Question: And the survivor count (dose: 200.0 mg/kg/injection, schedule: Q01DX009 (ip), vehicle: distilled water + alcohol)?
Answer: 0 of 6

Question: `Nc1ccc(N=C2C=CC(=O)C=C2)c(N)c1` was tested. Which T/C [3] did it give?
Answer: 125 % of control

Question: What about the survivor count (dose: 50.0 mg/kg/injection, schedule: Q01DX009 (ip), vehicle: saline) of the same molecule?
Answer: 6 of 6

Question: What about the T/C [5] of the same molecule?
Answer: 135 % of control

Question: And the survivor count (dose: 100.0 mg/kg/injection, schedule: Q01DX009 (ip), vehicle: saline)?
Answer: 6 of 6

Question: And the survivor count [6]?
Answer: 4 of 6

Question: Which results are given for `C=CS(=O)(=O)OCCCl`?
Answer: T/C [1]: 108, 113, 118, 125 % of control; T/C [2]: 108 and 125 % of control; survivor count [2]: 2 of 6 and 3 of 6; survivor count [3]: 0 of 6; survivor count [5]: 0 of 6; survivor count [6]: 0 of 6

Question: What does the source list for `Oc1ccc(Nc2ccc(N(CCCl)CCCl)cc2)c2ccccc12`?
Answer: T/C (dose: 12.5 mg/kg/injection, schedule: Q01DX001 (ip), vehicle: Klucel (hydroxypropylcellulose) (HPC)): 132 % of control; T/C (dose: 25.0 mg/kg/injection, schedule: Q01DX001 (ip), vehicle: Klucel (hydroxypropylcellulose) (HPC)): 139 % of control [5 of 6 alive]; survivor count (dose: 100.0 mg/kg/injection, schedule: Q01DX001 (ip), vehicle: Klucel (hydroxypropylcellulose) (HPC)): 3 of 6; survivor count (dose: 200.0 mg/kg/injection, schedule: Q01DX001 (ip), vehicle: Klucel (hydroxypropylcellulose) (HPC)): 5 of 6

Question: What does the source list for `Cc1cc(N=Nc2ccc(-c3ccc(N=Nc4ccc(O)c(C(=O)O)c4)cc3)cc2)c(N)c(N=Nc2ccc(C(=O)Nc3ccc(S(=O)(=O)O)cc3)cc2)c1N`?
Answer: survivor count [7]: 6 of 6; survivor count (dose: 100.0 mg/kg/injection, schedule: Q01DX005 (ip), vehicle: saline with Tween-80): 2 of 6; survivor count (dose: 200.0 mg/kg/injection, schedule: Q01DX005 (ip), vehicle: saline with Tween-80): 0 of 6

Question: Which results are given for `CC1CC(C#N)=C(NC#N)NC1=O` (centres undefined)?
Answer: T/C (dose: 30.0 mg/kg/injection, schedule: Q01DX005 (ip), vehicle: saline with Tween-80): 134 % of control; T/C (dose: 30.0 mg/kg/injection, schedule: Q01DX005 (ip), vehicle: saline): 126 % of control; survivor count [8]: 0 of 6; survivor count (dose: 60.0 mg/kg/injection, schedule: Q01DX005 (ip), vehicle: saline): 0 of 6; survivor count [9]: 0 of 6; survivor count [10]: 0 of 6

Question: What does the source list for `CCOC(=O)Nc1cc2c(c(N)n1)N=C(c1ccc(C)cc1)CN2`?
Answer: T/C (dose: 12.0 mg/kg/injection, schedule: Q01DX005 (ip), vehicle: saline with Tween-80): 130 % of control; T/C (dose: 12.5 mg/kg/injection, schedule: Q01DX005 (ip), vehicle: saline with Tween-80): 133 % of control; survivor count (dose: 25.0 mg/kg/injection, schedule: Q01DX005 (ip), vehicle: saline with Tween-80): 5 of 5; survivor count [7]: 5 of 5

Question: With `CC1=C(/C=C/C(C)=C/C=C/C(C)=C/CO)C(C)(C)CCC1` as the molecule, how does the survivor count [4] read?
Answer: 3 of 6

Question: For `CCCCOC(=O)N(CCF)N=O`, which T/C [11] is on record?
Answer: 127 and 135 % of control

Question: And the survivor count (dose: 50.0 mg/kg/injection, schedule: Q01DX001 (ip), vehicle: saline with Tween-80)?
Answer: 1 of 6

Question: Which results are given for `CCOC(=O)N(CCF)N=O`?
Answer: T/C (dose: 12.5 mg/kg/injection, schedule: Q01DX001 (ip), vehicle: saline with Tween-80): 137 % of control [5 of 6 alive]; survivor count [11]: 0 of 6

Question: What does the source list for `CC(=O)OCc1c(COC(C)=O)c(-c2ccccc2)n2c1CCC2`?
Answer: T/C (dose: 6.25 mg/kg/injection, schedule: Q01DX009 (ip), vehicle: Klucel (hydroxypropylcellulose) (HPC)): 125 % of control [5 of 6 alive]; T/C (dose: 25.0 mg/kg/injection, schedule: Q01DX009 (ip), vehicle: Klucel (hydroxypropylcellulose) (HPC)): 142 % of control; survivor count (dose: 50.0 mg/kg/injection, schedule: Q01DX009 (ip), vehicle: Klucel (hydroxypropylcellulose) (HPC)): 6 of 6; survivor count (dose: 100.0 mg/kg/injection, schedule: Q01DX009 (ip), vehicle: Klucel (hydroxypropylcellulose) (HPC)): 3 of 6; survivor count (dose: 200.0 mg/kg/injection, schedule: Q01DX009 (ip), vehicle: Klucel (hydroxypropylcellulose) (HPC)): 0 of 6

Question: Which results are given for `CC(/C=C/c1ccc(Cl)cc1)=N\NC(N)=S`?
Answer: survivor count [8]: 0 of 6; survivor count [9]: 0 of 6; survivor count [10]: 0 of 6

Question: Which survivor count (dose: 400.0 mg/kg/injection, schedule: Q04DX003 (ip), vehicle: saline) does the source give for `CC(=O)N1C=[N+](C)C(C)(C)C1` here?
Answer: 4 of 6

Question: With `COC(=O)[C@@]12OC[C@]34[C@H]([C@@H](O)[C@@H]1O)[C@@]1(C)CC(=O)C(OC(=O)CC(=O)OC5=C(C)[C@@H]6C[C@H]7OC(=O)[C@H](OC(=O)C=C(C)C)[C@H]8[C@]9(C(=O)OC)OC[C@]78[C@H]([C@@H](O)[C@@H]9O)[C@@]6(C)CC5=O)=C(C)[C@@H]1C[C@H]3OC(=O)[C@H](OC(=O)C=C(C)C)[C@@H]24` as the molecule, how does the T/C (dose: 0.38 mg/kg/injection, schedule: Q01DX009 (ip), vehicle: saline + Tween-80 + alcohol) read?
Answer: 131 % of control

Question: And the T/C (dose: 0.75 mg/kg/injection, schedule: Q01DX009 (ip), vehicle: saline + Tween-80 + alcohol)?
Answer: 131 % of control

Question: And the T/C (dose: 1.5 mg/kg/injection, schedule: Q01DX009 (ip), vehicle: saline + Tween-80 + alcohol)?
Answer: 135 % of control

Question: And the T/C (dose: 3.0 mg/kg/injection, schedule: Q01DX009 (ip), vehicle: saline + Tween-80 + alcohol)?
Answer: 131 % of control
